From publication PMC4010968, “Nap1 stimulates homologous recombination by RAD51 and RAD54 in higher-ordered chromatin containing histone H1” (Scientific Reports, 2014)
These are yes or no findings as the source states them, for the method shown. Binding seen in cells or lysates may run through a third protein. Some results given as binding are weak or reduced against the parent protein; the word gives no strength. Tags and fused reporters may be left off the sequences shown.

Biological target: T1, FLAG-Nap1 (human) (UniProt P55209)
T1 sequence: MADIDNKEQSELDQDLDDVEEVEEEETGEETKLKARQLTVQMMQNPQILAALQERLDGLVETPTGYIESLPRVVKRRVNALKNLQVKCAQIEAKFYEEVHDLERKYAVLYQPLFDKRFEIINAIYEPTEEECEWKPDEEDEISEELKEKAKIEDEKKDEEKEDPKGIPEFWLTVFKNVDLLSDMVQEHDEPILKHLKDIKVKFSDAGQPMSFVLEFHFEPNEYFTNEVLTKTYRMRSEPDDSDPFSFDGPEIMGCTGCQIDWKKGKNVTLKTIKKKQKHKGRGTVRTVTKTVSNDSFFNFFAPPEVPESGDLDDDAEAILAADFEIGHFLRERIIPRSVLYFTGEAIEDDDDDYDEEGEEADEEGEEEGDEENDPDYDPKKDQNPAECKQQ
Test: co-IP; FLAG-Nap1 captured with an anti-FLAG antibody from HEK293T cells expressing FLAG-Nap1 and Myc-RAD54, with or without cisplatin; Myc-RAD54 and endogenous RAD51 detected by anti-Myc and anti-RAD51 blots (the paper calls it a pull-down assay)

binding: binds
B1: Myc-RAD54 (protein, UniProt Q92698 1-747)
chain: MRRSLAPSQLAKRKPEGRSCDDEDWQPGLVTPRKRKSSSETQIQECFLSPFRKPLSQLTNQPPCLDSSQHEAFIRSILSKPFKVPIPNYQGPLGSRALGLKRAGVRRALHDPLEKDALVLYEPPPLSAHDQLKLDKEKLPVHVVVDPILSKVLRPHQREGVKFLWECVTSRRIPGSHGCIMADEMGLGKTLQCITLMWTLLRQSPECKPEIDKAVVVSPSSLVKNWYNEVGKWLGGRIQPLAIDGGSKDEIDQKLEGFMNQRGARVSSPILIISYETFRLHVGVLQKGSVGLVICDEGHRLKNSENQTYQALDSLNTSRRVLISGTPIQNDLLEYFSLVHFVNSGILGTAHEFKKHFELPILKGRDAAASEADRQLGEERLRELTSIVNRCLIRRTSDILSKYLPVKIEQVVCCRLTPLQTELYKRFLRQAKPAEELLEGKMSVSSLSSITSLKKLCNHPALIYDKCVEEEDGFVGALDLFPPGYSSKALEPQLSGKMLVLDYILAVTRSRSSDKVVLVSNYTQTLDLFEKLCRARRYLYVRLDGTMSIKKRAKVVERFNSPSSPDFVFMLSSKAGGCGLNLIGANRLVMFDPDWNPANDEQAMARVWRDGQKKTCYIYRLLSAGTIEEKIFQRQSHKKALSSCVVDEEQDVERHFSLGELKELFILDEASLSDTHDRLHCRRCVNSRQIRPPPDGSDCTSDLAGWNHCTDKWGLRDEVLQAAWDAASTAITFVFHQRSHEEQRGLR
